Measurements as given in publication PMC11369092.
Results are given in words; binding and its absence hold for the method and conditions named. Binding can be weak; no strength is given. Sequences can lack the tags named with a protein.

Biological target: recombinant GST-tagged RPL40
Experiment: pull-down; 2.5 ug Flag-SMYD5 and 1 ug GST-RPL40 mixed in 150 uL binding buffer (20 mM TrisCl 7.4, 150 mM NaCl, 0.2% Triton X-100), held on 10 uL GST resin, washed 4 times, SDS-PAGE and coomassie blue staining; Flag-SMYD5 alone as control; both purified

- binding: binds
B1: Flag-tagged recombinant SMYD5 (enzyme, UniProt Q6GMV2 1-418)
chain: MAASMCDVFSFCVGVAGRARVSVEVRFVSSAKGKGLFATQLIRKGETIFVERPLVAAQFLWNALYRYRACDHCLRALEKAEENAQRLTGKPGQVLPHPELCTVRKDLHQNCPHCQVMYCSAECRLAATEQYHQVLCPGPSQDDPLHPLNKLQEAWRSIHYPPETASIMLMARMVATVKQAKDKDRWIRLFSQFCNKTANEEEEIVHKLLGDKFKGQLELLRRLFTEALYEEAVSQWFTPDGFRSLFALVGTNGQGIGTSSLSQWVHACDTLELKPQDREQLDAFIDQLYKDIEAATGEFLNCEGSGLFVLQSCCNHSCVPNAETSFPENNFLLHVTALEDIKPGEEICISYLDCCQRERSRHSRHKILRENYLFVCSCPKCLAEADEPNVTSEEEEEEEEEEEGEPEDAELGDEMTDV
